Experimental data: PubChem BioAssay AID602196 (INSERM, 2012)

Screen: 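Genes whose knock-down alters cisplatin killing of lung cancer cells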
Cell system: human A549 lung cancer cells
Knock-down reagent: siRNA pair against human genes
Duration: 48 h transfection before cisplatin; time from cisplatin to read-out not stated
Treatment: cisplatin at a dose killing half of control-siRNA cells; exact dose and duration not given
Measured: 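Cisplatin cell death as a shift from the 50% death seen with control siRNA; siRNAs toxic or growth-blocking alone scored 0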
Direction: two-siRNA summed score (-2 to +2): higher = both siRNAs protect from cisplatin killing; -2 means both sensitise; mean protection from cisplatin (shift in death): higher = protection from cisplatin killing
Rule for the call: 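Each siRNA scores 0 if harmful alone by LDH or WST-1, otherwise +1 if it reduces and -1 if it increases cisplatin killing; a gene is active when both siRNAs agree (sum +2 or -2)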
Meaning of the calls: active = both siRNAs shift cisplatin killing the same way; inactive = no consistent shift, or siRNA harmful alone
Here is an unselected part of about 23,000 deposited reagents. 455 of all reagents (2%) count as active. 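Active includes both protection and sensitisation; some change values fall well beyond the stated -50 to +50 range.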 Further read-outs or replicates are left out here. Not stated in the record: the amount of reagent.

gene symbol	two-siRNA summed score (-2 to +2)	mean protection from cisplatin (shift in death) (%)	call
XAGE1B (X antigen family member 1B)	0	1.3	inactive
C20orf202 (chromosome 20 open reading frame 202)	1	9.5	inactive
LOC388248 (Rho GTPase activating protein 23 pseudogene)	-1	-4.5	inactive
ATP1A3 (ATPase Na+/K+ transporting subunit alpha 3)	-1	-6.1	inactive
PDCD7 (programmed cell death 7)	0	4.6	inactive
H2AP (H2A.P histone)	0	5	inactive
LINC01097 (long independently transcribed non-coding RNA 1097)	0	8.7	inactive
FLRT3 (fibronectin leucine rich transmembrane protein 3)	0	-2.5	inactive
ARMC6 (armadillo repeat containing 6)	0	-5.8	inactive
SSX4 (SSX family member 4)	0	-6.5	inactive
MIER3 (MIER family member 3)	0	-5.9	inactive
JAK3 (Janus kinase 3)	1	11.3	inactive
CDC16 (cell division cycle 16)	0	-0.4	inactive
MRPL42 (mitochondrial ribosomal protein L42)	1	10.8	inactive
MST1 (macrophage stimulating 1)	1	7.7	inactive
CCDC81 (coiled-coil domain containing 81)	0	1.3	inactive
LOC402028	1	20	inactive
MTDH (metadherin)	0	2.4	inactive
GATA4 (GATA binding protein 4)	1	10.8	inactive
OR1D2 (olfactory receptor family 1 subfamily D member 2)	-1	-10.2	inactive
SCN4B (sodium voltage-gated channel beta subunit 4)	1	-4.4	inactive
LOC402504	0	4.6	inactive
SYCP2 (synaptonemal complex protein 2)	2	28.4	active
CHORDC1 (cysteine and histidine rich domain containing 1)	-1	-15.3	inactive
RBM27 (RNA binding motif protein 27)	0	7.9	inactive
RAB11FIP5 (RAB11 family interacting protein 5)	1	12.4	inactive
SMARCC1 (SWI/SNF related BAF chromatin remodeling complex subunit C1)	0	10.2	inactive
LOC139793	0	2.5	inactive
AP3D1 (adaptor related protein complex 3 subunit delta 1)	0	15.9	inactive
CCDC146 (coiled-coil domain containing 146)	0	10.6	inactive
LOC440096	0	3.4	inactive
SH2D6 (SH2 domain containing 6)	1	12.9	inactive
LY86 (lymphocyte antigen 86)	0	8.7	inactive
NOXA1 (NADPH oxidase activator 1)	0	5.5	inactive
PPP1R3F (protein phosphatase 1 regulatory subunit 3F)	0	6.7	inactive
CNGA3 (cyclic nucleotide gated channel subunit alpha 3)	0	0.6	inactive
LRFN2	0	7.3	inactive
LOC440583	1	6.7	inactive
JAKMIP1-DT (JAKMIP1 divergent transcript)	0	8.2	inactive
CLEC6A (C-type lectin domain containing 6A)	0	6.2	inactive
CCDC172 (coiled-coil domain containing 172)	0	11.6	inactive
LINC01951 (long independently transcribed non-coding RNA 1951)	-1	-4	inactive
KLF16 (KLF transcription factor 16)	0	-10.2	inactive
SLAMF8 (SLAM family member 8)	-1	-11.8	inactive
BCOR (BCL6 corepressor)	1	1.2	inactive
LOC441448	0	14.8	inactive
SOD3 (superoxide dismutase 3)	0	31.9	inactive
NGF (nerve growth factor)	0	-4.4	inactive
UBE2G2 (ubiquitin conjugating enzyme E2 G2)	-1	-5.3	inactive
MGC12966	0	-2.1	inactive
FBXL22 (F-box and leucine rich repeat protein 22)	0	3.8	inactive
MT1H (metallothionein 1H)	0	0.7	inactive
ZNF800 (zinc finger protein 800)	0	25.5	inactive
BANP (BTG3 associated nuclear protein)	1	10.2	inactive
BUD31 (BUD31 spliceosome associated protein)	1	-0.2	inactive
RBBP7 (RB binding protein 7, chromatin remodeling factor)	-1	-10.2	inactive
PDE12 (phosphodiesterase 12)	-1	2.8	inactive

Called active (from the list above):
gene symbol	two-siRNA summed score (-2 to +2)	mean protection from cisplatin (shift in death) (%)	call
SYCP2 (synaptonemal complex protein 2)	2	28.4	active
